Reference: patent publication US20050261195 (published 2005)

Experiment: peptide synthesis
Conditions: acetate

## 5-oxo-L-prolyl-L-histidyl-L-tryptophyl-L-seryl-L-tyrosyl-D-leucyl-L-leucyl-L-arginyl-N-ethyl-L-prolinamide
Late stage modification step
  step yield: 90.9%
Purification step, run 1
  step yield: 86.3%
Purification step, run 2
  step yield: 87.8%
Purification step, run 3
  step yield: 98.9%
Purification step, run 4
  step yield: 86.4%
